Measured values reported in PMC4922016, “Loss of flotillin expression results in weakened desmosomal adhesion and Pemphigus vulgaris-like localisation of desmoglein-3 in human keratinocytes” (Scientific Reports, 2016).
Results are given in words; binding and its absence hold for the method and conditions named. For part of these data: Binding seen in cells or lysates may run through a third protein. Some entries that bind do so weakly or less than the wild type. For part of these data: Tags and fused reporters may be left off the sequences shown.

Chains of the proteins cited; added tags and fusions are not shown. Lines headed by an entry give the natural chain unless they say otherwise; changes in a name come on top. Residues count along the entry.
UniProt Q02413: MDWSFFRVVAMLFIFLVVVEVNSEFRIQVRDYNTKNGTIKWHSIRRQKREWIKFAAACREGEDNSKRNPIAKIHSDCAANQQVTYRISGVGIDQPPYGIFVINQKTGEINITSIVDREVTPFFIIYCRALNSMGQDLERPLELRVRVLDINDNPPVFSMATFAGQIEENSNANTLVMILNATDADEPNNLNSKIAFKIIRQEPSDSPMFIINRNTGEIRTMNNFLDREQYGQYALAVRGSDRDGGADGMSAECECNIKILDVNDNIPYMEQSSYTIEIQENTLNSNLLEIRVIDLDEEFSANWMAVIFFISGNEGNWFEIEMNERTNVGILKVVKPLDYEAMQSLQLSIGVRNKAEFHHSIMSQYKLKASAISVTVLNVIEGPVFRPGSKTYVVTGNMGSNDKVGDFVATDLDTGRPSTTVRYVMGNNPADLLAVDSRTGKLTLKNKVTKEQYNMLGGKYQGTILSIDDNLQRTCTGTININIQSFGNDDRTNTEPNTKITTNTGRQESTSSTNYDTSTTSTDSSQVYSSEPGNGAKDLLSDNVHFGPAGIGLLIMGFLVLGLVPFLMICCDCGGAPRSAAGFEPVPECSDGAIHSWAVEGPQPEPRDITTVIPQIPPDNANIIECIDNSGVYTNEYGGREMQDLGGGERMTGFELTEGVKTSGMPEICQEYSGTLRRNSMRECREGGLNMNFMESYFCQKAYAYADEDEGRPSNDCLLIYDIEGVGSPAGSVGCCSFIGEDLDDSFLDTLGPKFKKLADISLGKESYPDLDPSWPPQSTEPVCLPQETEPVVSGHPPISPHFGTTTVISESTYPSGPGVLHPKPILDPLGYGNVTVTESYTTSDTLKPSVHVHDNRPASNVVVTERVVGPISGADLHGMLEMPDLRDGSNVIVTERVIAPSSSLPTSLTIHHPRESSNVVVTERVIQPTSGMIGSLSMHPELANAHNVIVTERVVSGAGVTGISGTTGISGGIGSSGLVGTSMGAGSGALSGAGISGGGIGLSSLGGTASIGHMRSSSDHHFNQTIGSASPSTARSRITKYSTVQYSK
GST fusion of the cytoplasmic domain of human desmoglein-1: residues 570-1049 of Q02413

T1: flotillin-2 (human (endogenous in HaCaT)) (UniProt Q14254)
T1 sequence: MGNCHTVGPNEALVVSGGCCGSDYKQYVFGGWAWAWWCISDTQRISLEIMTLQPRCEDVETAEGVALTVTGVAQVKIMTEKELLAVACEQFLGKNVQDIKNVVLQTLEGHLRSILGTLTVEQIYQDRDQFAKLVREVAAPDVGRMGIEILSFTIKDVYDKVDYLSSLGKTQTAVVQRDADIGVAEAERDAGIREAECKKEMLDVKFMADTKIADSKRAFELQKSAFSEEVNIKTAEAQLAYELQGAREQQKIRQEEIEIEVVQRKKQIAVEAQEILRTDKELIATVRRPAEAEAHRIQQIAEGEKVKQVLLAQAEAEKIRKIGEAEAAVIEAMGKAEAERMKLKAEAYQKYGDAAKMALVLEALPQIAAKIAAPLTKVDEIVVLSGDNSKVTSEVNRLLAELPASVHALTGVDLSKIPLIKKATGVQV

T2: flotillin-1 (human (endogenous in HaCaT)) (UniProt O75955)
T2 sequence: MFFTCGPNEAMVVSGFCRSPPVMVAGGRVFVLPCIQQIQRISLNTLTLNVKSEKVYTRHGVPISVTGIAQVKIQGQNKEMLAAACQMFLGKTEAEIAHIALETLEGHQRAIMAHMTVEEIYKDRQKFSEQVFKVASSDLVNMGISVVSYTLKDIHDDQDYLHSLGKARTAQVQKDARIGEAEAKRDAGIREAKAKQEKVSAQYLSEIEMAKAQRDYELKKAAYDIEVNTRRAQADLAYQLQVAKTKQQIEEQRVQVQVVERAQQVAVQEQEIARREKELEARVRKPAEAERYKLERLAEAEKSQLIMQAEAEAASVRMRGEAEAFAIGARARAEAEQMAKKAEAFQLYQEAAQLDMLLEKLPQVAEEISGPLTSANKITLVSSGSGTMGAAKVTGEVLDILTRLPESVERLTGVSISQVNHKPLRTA

T3: GST fusion of the cytoplasmic domain of human desmoglein-3 (human) (UniProt P32926)
T3 sequence: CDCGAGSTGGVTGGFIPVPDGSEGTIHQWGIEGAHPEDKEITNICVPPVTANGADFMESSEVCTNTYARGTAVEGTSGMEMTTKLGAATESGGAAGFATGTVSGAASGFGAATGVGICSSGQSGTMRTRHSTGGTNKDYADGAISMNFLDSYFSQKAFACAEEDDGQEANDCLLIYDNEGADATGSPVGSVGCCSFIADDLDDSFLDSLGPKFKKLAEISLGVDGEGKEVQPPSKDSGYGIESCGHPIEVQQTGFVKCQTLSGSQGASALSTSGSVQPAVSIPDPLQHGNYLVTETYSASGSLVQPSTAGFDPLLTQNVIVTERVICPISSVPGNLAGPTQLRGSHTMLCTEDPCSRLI

T4: Dsg3-MBP fusion protein (human) (UniProt P32926)
T4 sequence: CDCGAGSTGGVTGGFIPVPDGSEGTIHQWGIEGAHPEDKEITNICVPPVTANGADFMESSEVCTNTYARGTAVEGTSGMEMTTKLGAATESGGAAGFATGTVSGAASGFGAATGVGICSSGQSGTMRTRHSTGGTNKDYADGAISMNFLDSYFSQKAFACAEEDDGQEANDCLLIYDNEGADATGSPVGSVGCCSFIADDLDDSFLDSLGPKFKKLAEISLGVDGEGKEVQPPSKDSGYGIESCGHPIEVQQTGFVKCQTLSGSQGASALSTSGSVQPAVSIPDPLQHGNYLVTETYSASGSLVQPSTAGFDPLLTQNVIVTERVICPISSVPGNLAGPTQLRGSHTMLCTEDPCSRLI


Key:
[1] = biological target: T1, flotillin-2 (human (endogenous in HaCaT)); experiment: co-IP; antibodies against endogenous flotillin-1 or flotillin-2; confluent HaCaT cells, 1 mg of lysate (50 mM Tris pH 7.4, 150 mM NaCl, 2 mM EDTA, 1% NP-40); Western blot for Dsg1-3; anti-c-myc as negative control
[2] = biological target: T2, flotillin-1 (human (endogenous in HaCaT)); experiment: as above
[3] = biological target: T3, GST fusion of the cytoplasmic domain of human desmoglein-3 (human); experiment: pull-down; GST-tagged cytoplasmic domains of Dsg1-3 immobilised on glutathione sepharose, HaCaT lysate (1 mg), overnight at 4 °C; 10 mM Tris-HCl pH 8.0, 150 mM NaCl, 5 mM EDTA, 0.5% Triton X-100, 60 mM N-octylglucoside; Western blot; GST as negative control; only the target purified
[4] = biological target: GST fusion of the cytoplasmic domain of human desmoglein-1 (human) (UniProt Q02413); experiment: as above
[5] = biological target: T4, Dsg3-MBP fusion protein (human); experiment: pull-down; Dsg3-MBP (5 μg) immobilised on amylose resin, eluted flotillin-GST proteins in solution; 50 mM Tris-HCl pH 7.5, 150 mM NaCl, 0.01% Triton X-100, 1 mM DTT, 1 mM EDTA, 1% BSA, on ice 2-3 h; Western blot; MBP and GST as controls; both purified

Molecule	binding [1]	binding [2]	binding [3]	binding [4]	binding [5]
flotillin-2 (natural protein, human (endogenous in HaCaT), UniProt Q14254 1-428, looked up, flotillin-2, endogenous in human HaCaT keratinocytes; also called Flot-2; source: endogenous, HaCaT lysate) MGNCHTVGPNEALVVSGGCCGSDYKQYVFGGWAWAWWCISDTQRISLEIMTLQPRCEDVETAEGVALTVTGVAQVKIMTEKELLAVACEQFLGKNVQDIKNVVLQTLEGHLRSILGTLTVEQIYQDRDQFAKLVREVAAPDVGRMGIEILSFTIKDVYDKVDYLSSLGKTQTAVVQRDADIGVAEAERDAGIREAECKKEMLDVKFMADTKIADSKRAFELQKSAFSEEVNIKTAEAQLAYELQGAREQQKIRQEEIEIEVVQRKKQIAVEAQEILRTDKELIATVRRPAEAEAHRIQQIAEGEKVKQVLLAQAEAEKIRKIGEAEAAVIEAMGKAEAERMKLKAEAYQKYGDAAKMALVLEALPQIAAKIAAPLTKVDEIVVLSGDNSKVTSEVNRLLAELPASVHALTGVDLSKIPLIKKATGVQV	–	–	binds	binds	–
flotillin-2-GST fusion (rat, full length) (protein, UniProt Q9Z2S9 1-428) MGNCHTVGPNEALVVSGGCCGSDYKQYVFGGWAWAWWCISDTQRISLEIMTLQPRCEDVETAEGVALTVTGVAQVKIMTEKELLAVACEQFLGKNVQDIKNVVLQTLEGHLRSILGTLTVEQIYQDRDQFAKLVREVAAPDVGRMGIEILSFTIKDVYDKVDYLSSLGKTQTAVVQRDADIGVAEAERDAGIREAECKKEMLDVKFMADTKIADSKRAFELQKSAFSEEVNIKTAEAQLAYELQGAREQQKIRQEEIEIEVVQRKKQIAVEAQEILRTDKELIATVRRPAEAEAHRIQQIAEGEKVKQVLLAQAEAEKIRKIGEAEAAVIEAMGKAEAERMKLKAEAYQKYGDAAKMALVLEALPQIAAKISAPLTKVDEIVVLSGDNSKVTSEVNRLLAELPASVHALTGVDLSKIPLIKNATGAQV	–	–	–	–	binds
desmoglein-3 (protein, UniProt P32926 50-999) EWVKFAKPCREGEDNSKRNPIAKITSDYQATQKITYRISGVGIDQPPFGIFVVDKNTGDINITAIVDREETPSFLITCRALNAQGLDVEKPLILTVKILDINDNPPVFSQQIFMGEIEENSASNSLVMILNATDADEPNHLNSKIAFKIVSQEPAGTPMFLLSRNTGEVRTLTNSLDREQASSYRLVVSGADKDGEGLSTQCECNIKVKDVNDNFPMFRDSQYSARIEENILSSELLRFQVTDLDEEYTDNWLAVYFFTSGNEGNWFEIQTDPRTNEGILKVVKALDYEQLQSVKLSIAVKNKAEFHQSVISRYRVQSTPVTIQVINVREGIAFRPASKTFTVQKGISSKKLVDYILGTYQAIDEDTNKAASNVKYVMGRNDGGYLMIDSKTAEIKFVKNMNRDSTFIVNKTITAEVLAIDEYTGKTSTGTVYVRVPDFNDNCPTAVLEKDAVCSSSPSVVVSARTLNNRYTGPYTFALEDQPVKLPAVWSITTLNATSALLRAQEQIPPGVYHISLVLTDSQNNRCEMPRSLTLEVCQCDNRGICGTSYPTTSPGTRYGRPHSGRLGPAAIGLLLLGLLLLLLAPLLLLTCDCGAGSTGGVTGGFIPVPDGSEGTIHQWGIEGAHPEDKEITNICVPPVTANGADFMESSEVCTNTYARGTAVEGTSGMEMTTKLGAATESGGAAGFATGTVSGAASGFGAATGVGICSSGQSGTMRTRHSTGGTNKDYADGAISMNFLDSYFSQKAFACAEEDDGQEANDCLLIYDNEGADATGSPVGSVGCCSFIADDLDDSFLDSLGPKFKKLAEISLGVDGEGKEVQPPSKDSGYGIESCGHPIEVQQTGFVKCQTLSGSQGASALSTSGSVQPAVSIPDPLQHGNYLVTETYSASGSLVQPSTAGFDPLLTQNVIVTERVICPISSVPGNLAGPTQLRGSHTMLCTEDPCSRLI	binds	binds	–	–	–

Second part, the molecule after the results:

binding [1]	binding [2]	binding [3]	binding [4]	binding [5]	Molecule
binds	binds	–	–	–	desmoglein-1 (from UniProt Q02413 50-1049)
–	–	binds	binds	–	flotillin-1 (natural protein, human (endogenous in HaCaT), UniProt O75955 1-427, looked up, flotillin-1, endogenous in human HaCaT keratinocytes; also called Flot-1; source: endogenous, HaCaT lysate) MFFTCGPNEAMVVSGFCRSPPVMVAGGRVFVLPCIQQIQRISLNTLTLNVKSEKVYTRHGVPISVTGIAQVKIQGQNKEMLAAACQMFLGKTEAEIAHIALETLEGHQRAIMAHMTVEEIYKDRQKFSEQVFKVASSDLVNMGISVVSYTLKDIHDDQDYLHSLGKARTAQVQKDARIGEAEAKRDAGIREAKAKQEKVSAQYLSEIEMAKAQRDYELKKAAYDIEVNTRRAQADLAYQLQVAKTKQQIEEQRVQVQVVERAQQVAVQEQEIARREKELEARVRKPAEAERYKLERLAEAEKSQLIMQAEAEAASVRMRGEAEAFAIGARARAEAEQMAKKAEAFQLYQEAAQLDMLLEKLPQVAEEISGPLTSANKITLVSSGSGTMGAAKVTGEVLDILTRLPESVERLTGVSISQVNHKPLRTA
